Measured values as given in the supplement of paper PMC7666118.
This is one part of the list.

Amino acid sequences for entries named in this document (tags omitted). A change or cut given only in a name is not applied to a line headed by its entry.
UniProt O76075: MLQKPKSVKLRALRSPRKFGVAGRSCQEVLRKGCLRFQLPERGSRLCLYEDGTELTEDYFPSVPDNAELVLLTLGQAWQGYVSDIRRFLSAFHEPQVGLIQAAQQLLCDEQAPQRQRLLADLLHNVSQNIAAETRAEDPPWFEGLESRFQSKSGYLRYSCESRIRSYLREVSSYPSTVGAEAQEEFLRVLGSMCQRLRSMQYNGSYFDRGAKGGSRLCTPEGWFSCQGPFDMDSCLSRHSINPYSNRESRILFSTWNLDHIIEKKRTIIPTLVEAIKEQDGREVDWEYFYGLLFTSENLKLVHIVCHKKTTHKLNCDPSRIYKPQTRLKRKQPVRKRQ
UniProt Q9H467: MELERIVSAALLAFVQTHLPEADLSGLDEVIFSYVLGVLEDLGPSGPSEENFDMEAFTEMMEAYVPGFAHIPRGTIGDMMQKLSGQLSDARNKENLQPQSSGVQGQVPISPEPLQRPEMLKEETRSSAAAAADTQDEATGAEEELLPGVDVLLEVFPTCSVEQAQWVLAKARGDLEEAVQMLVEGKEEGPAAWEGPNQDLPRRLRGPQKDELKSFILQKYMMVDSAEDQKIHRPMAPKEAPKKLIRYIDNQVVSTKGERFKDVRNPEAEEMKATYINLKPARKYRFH
UniProt Q9P0S2: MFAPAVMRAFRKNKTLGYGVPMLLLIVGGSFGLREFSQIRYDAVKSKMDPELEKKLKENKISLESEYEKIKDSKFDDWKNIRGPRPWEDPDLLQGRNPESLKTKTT
UniProt Q9NTM9: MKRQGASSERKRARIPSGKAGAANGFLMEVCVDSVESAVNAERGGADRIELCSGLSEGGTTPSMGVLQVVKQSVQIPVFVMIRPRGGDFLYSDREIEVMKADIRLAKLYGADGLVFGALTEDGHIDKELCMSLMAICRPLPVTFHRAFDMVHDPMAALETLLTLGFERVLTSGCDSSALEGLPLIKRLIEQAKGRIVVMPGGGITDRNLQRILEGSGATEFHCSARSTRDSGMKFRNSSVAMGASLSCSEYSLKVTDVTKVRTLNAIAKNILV
UniProt Q96HY6: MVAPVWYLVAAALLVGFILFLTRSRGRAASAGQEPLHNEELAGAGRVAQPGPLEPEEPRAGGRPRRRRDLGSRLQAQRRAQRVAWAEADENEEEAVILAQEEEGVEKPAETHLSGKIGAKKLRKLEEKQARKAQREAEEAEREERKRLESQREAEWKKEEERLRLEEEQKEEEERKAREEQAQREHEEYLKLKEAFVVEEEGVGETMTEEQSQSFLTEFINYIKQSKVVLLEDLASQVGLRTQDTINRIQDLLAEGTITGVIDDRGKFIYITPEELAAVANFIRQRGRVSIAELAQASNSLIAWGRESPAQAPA
UniProt P53621: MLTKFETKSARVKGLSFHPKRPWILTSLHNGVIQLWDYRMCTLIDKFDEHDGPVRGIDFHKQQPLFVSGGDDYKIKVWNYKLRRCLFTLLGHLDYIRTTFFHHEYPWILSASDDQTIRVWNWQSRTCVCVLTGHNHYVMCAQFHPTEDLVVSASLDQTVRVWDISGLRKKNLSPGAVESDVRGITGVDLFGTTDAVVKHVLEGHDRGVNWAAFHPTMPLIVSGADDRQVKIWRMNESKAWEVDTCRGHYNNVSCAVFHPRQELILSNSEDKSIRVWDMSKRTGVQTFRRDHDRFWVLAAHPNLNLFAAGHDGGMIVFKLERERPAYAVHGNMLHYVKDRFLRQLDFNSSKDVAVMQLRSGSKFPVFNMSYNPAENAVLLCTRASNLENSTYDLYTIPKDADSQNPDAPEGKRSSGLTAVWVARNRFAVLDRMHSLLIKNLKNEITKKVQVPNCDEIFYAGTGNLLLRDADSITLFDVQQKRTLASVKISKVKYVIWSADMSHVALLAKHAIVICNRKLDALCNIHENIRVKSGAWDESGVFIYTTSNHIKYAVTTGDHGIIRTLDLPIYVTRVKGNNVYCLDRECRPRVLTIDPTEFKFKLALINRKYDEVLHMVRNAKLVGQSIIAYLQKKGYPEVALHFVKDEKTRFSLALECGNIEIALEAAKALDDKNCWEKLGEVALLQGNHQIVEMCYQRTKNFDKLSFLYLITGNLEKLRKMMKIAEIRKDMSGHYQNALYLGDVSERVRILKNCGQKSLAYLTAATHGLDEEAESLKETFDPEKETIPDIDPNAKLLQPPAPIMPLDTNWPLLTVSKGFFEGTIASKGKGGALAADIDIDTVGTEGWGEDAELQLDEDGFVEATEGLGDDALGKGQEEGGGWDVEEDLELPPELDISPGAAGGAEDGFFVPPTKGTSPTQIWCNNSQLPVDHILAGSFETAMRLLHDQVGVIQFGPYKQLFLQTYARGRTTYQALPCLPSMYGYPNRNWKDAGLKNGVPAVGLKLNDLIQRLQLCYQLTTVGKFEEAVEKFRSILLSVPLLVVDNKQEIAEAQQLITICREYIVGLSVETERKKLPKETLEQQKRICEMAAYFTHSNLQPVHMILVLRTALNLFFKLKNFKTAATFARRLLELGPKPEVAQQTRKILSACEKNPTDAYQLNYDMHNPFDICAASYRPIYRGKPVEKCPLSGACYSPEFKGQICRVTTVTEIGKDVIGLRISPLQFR
UniProt Q8TDD1, whole entry: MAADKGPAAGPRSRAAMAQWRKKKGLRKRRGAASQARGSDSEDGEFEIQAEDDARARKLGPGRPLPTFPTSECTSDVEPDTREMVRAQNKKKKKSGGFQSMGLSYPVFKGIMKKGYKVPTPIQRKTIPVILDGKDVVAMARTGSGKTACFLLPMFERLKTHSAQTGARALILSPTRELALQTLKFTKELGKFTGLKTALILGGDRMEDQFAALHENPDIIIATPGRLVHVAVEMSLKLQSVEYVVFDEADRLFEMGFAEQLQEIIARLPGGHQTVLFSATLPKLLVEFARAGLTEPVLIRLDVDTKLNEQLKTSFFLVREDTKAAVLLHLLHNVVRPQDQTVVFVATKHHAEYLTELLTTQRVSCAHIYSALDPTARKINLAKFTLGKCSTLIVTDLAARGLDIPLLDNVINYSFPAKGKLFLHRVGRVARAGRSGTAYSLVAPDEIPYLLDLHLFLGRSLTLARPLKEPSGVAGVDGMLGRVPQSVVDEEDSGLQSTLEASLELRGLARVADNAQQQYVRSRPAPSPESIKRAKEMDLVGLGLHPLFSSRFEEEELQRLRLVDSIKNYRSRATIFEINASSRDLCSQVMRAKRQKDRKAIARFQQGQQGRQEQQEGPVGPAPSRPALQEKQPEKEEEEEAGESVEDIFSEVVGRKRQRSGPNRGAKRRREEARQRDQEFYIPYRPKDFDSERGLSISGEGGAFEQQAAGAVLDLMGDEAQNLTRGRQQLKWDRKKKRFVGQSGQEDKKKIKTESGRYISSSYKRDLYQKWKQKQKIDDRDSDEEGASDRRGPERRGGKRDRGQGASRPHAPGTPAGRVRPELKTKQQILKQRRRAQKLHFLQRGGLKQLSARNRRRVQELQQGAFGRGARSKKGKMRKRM
UniProt P10606, whole entry: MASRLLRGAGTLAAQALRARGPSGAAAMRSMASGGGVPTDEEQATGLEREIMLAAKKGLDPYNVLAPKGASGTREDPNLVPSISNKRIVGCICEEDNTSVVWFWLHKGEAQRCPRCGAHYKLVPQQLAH
UniProt P12074, whole entry: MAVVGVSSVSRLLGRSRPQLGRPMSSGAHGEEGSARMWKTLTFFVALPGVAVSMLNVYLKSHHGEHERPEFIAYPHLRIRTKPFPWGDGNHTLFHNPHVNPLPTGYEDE
UniProt O00273: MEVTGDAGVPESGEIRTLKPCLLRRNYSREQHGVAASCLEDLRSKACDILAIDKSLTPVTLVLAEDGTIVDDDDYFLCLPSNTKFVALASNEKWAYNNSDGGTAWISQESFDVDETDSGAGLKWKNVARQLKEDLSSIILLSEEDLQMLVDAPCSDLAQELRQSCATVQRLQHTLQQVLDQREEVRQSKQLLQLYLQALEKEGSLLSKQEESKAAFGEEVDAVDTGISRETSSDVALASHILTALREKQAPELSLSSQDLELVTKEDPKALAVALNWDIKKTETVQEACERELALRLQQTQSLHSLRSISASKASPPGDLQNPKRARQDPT
UniProt Q8IWT3: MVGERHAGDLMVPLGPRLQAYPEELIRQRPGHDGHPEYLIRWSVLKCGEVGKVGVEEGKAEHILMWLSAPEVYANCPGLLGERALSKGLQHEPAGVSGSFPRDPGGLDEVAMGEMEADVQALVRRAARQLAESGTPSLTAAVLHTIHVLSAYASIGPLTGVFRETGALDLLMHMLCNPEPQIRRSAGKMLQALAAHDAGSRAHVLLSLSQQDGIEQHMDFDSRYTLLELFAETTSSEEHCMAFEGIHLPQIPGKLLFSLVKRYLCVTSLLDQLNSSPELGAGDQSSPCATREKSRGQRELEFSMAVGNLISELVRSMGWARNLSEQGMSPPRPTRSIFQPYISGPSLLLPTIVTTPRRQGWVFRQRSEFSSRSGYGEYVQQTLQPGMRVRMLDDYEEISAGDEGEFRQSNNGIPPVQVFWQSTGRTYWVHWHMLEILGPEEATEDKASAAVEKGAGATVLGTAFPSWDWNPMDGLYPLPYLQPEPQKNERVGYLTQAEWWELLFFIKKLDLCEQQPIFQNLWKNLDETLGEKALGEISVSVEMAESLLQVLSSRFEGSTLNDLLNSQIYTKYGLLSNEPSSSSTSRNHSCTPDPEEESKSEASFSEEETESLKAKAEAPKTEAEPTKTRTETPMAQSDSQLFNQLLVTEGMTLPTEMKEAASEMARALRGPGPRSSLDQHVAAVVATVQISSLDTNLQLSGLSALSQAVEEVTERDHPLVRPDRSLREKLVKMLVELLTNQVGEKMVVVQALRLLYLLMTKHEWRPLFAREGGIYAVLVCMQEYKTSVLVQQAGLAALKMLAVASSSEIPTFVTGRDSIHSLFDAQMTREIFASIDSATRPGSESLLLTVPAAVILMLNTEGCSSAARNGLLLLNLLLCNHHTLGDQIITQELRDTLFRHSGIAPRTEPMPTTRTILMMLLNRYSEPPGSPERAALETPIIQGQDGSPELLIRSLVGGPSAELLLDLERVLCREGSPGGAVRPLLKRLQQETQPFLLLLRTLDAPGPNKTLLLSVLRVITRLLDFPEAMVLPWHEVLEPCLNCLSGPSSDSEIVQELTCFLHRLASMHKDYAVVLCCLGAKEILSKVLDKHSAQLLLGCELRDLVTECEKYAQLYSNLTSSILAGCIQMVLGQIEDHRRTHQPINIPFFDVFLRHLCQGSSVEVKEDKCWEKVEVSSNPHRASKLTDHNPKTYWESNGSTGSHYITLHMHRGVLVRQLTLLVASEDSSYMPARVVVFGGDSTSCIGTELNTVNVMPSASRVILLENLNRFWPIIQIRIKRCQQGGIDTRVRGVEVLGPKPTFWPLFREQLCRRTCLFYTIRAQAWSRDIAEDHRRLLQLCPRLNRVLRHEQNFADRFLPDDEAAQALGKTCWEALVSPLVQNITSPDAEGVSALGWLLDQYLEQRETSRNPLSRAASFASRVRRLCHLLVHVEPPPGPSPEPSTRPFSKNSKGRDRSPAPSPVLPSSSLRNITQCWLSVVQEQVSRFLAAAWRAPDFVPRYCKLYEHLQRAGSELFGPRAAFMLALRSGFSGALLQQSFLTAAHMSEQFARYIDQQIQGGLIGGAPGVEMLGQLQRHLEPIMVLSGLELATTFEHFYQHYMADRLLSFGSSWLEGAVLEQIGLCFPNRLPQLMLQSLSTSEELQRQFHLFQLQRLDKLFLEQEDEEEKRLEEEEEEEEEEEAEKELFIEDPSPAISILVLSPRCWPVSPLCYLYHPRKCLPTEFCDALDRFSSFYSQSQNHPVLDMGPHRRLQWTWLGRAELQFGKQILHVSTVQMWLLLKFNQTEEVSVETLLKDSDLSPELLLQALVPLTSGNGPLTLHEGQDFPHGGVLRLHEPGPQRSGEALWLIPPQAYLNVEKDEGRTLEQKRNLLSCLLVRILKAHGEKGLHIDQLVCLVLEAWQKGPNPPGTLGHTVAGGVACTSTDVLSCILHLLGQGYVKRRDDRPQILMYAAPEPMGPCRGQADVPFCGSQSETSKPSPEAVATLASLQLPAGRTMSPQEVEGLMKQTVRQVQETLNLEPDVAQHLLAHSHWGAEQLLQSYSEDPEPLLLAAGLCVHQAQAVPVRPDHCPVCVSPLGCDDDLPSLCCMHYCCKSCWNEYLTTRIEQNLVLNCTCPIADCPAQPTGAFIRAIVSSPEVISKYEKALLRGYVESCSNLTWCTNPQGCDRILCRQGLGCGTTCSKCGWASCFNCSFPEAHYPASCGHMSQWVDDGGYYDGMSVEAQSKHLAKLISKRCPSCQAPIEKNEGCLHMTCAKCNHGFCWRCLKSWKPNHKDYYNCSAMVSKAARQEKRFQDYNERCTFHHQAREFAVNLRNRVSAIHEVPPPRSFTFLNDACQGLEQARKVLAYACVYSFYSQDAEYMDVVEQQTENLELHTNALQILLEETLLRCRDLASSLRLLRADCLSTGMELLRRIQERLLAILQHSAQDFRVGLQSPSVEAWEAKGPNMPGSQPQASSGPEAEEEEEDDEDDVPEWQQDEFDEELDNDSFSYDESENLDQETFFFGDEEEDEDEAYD

compound: COc1ccc(Cn2ccc3ccc(C(=O)NO)cc32)cc1; experiment: dose-dependent thermal stabilisation call (2D-TPP, DLPTP, 10% FDR) (binary (1 = stabilised)); higher = stabilised by the compound; settings: system: HL-60 intact cells; concentration range 0.04-10 µM

| Target | dose-dependent thermal stabilisation call |
| --- | --- |
| CTSW (UniProt P56202) | inactive: 0 |
| DGUOK (UniProt Q16854) | inactive: 0 |
| DCP2 (UniProt Q8IU60) | inactive: 0 |
| DFFB (UniProt O76075) | inactive: 0 |
| DAP3 (UniProt P51398) | inactive: 0 |
| DCTD (UniProt P32321) | inactive: 0 |
| DDX50 (UniProt Q9BQ39) | inactive: 0 |
| CTAGE5 (UniProt Q96PC5) | inactive: 0 |
| CUEDC2 (UniProt Q9H467) | inactive: 0 |
| COPZ1 (UniProt P61923) | inactive: 0 |
| COX16 (UniProt Q9P0S2) | inactive: 0 |
| DCD (UniProt P81605) | inactive: 0 |
| CUTC (UniProt Q9NTM9) | inactive: 0 |
| CTPS (UniProt P17812) | inactive: 0 |
| DDRGK1 (UniProt Q96HY6) | inactive: 0 |
| DAZAP1 (UniProt Q96EP5) | inactive: 0 |
| CSNK1E (UniProt P49674) | inactive: 0 |
| CYBRD1 (UniProt Q53TN4) | inactive: 0 |
| COPE (UniProt O14579) | inactive: 0 |

| Target | dose-dependent thermal stabilisation call |
| --- | --- |
| DHRS13 (UniProt Q6UX07) | inactive: 0 |
| CWC15 (UniProt Q9P013) | inactive: 0 |
| CWC22 (UniProt Q9HCG8) | inactive: 0 |
| CORO2A (UniProt Q92828) | inactive: 0 |
| COPA (UniProt P53621) | inactive: 0 |
| DDAH1 (UniProt O94760) | inactive: 0 |
| DDX60L (UniProt Q5H9U9) | inactive: 0 |
| DDX18 (UniProt Q9NVP1) | inactive: 0 |
| CYP20A1 (UniProt Q6UW02) | inactive: 0 |
| DDX54 (UniProt Q8TDD1) | inactive: 0 |
| COX5B (UniProt P10606) | inactive: 0 |
| COX6A1 (UniProt P12074) | active: 1 |
| CREBBP (UniProt Q92793) | inactive: 0 |
| COX3 | inactive: 0 |
| DDX26B (UniProt Q5JSJ4) | inactive: 0 |
| DFFA (UniProt O00273) | inactive: 0 |
| CUL9 (UniProt Q8IWT3) | inactive: 0 |
| DDX46 (UniProt Q7L014) | inactive: 0 |

Two consecutive entries from above, for reference:

| Target | dose-dependent thermal stabilisation call |
| --- | --- |
| COX16 (UniProt Q9P0S2) | inactive: 0 |
| DCD (UniProt P81605) | inactive: 0 |
